In publication PMC11984877, “Carnosic Acid Directly Targets STING C‐Terminal Tail to Improve STING‐Mediated Inflammatory Diseases” (Advanced Science, 2025):
No constants are given. Whether binding was seen depends on the method and setting. Binding seen in cells or lysates may run through a third protein. Some entries that bind do so weakly or less than the wild type. Where a sequence is shown, tags or fusion partners need not be part of it. Each block holds one binder with its values, some of them ahead of it.

Target: Strep-tagged STING (full-length), Q86WV6
Test: co-IP; HEK293T co-transfected with Strep-tagged STING, HA-tagged IRF3 and Flag-tagged TBK1 for 18 h, then DMSO or CA (20 µM) for 6 h; lysates precipitated with Strep affinity beads for 4 h, western blot
Details: remark: other sources report otherwise

binding: binds
B1: HA-tagged interferon regulatory factor 3 (IRF3), Q14653 1-427 (protein)
chain: MGTPKPRILPWLVSQLDLGQLEGVAWVNKSRTRFRIPWKHGLRQDAQQEDFGIFQAWAEATGAYVPGRDKPDLPTWKRNFRSALNRKEGLRLAEDRSKDPHDPHKIYEFVNSGVGDFSQPDTSPDTNGGGSTSDTQEDILDELLGNMVLAPLPDPGPPSLAVAPEPCPQPLRSPSLDNPTPFPNLGPSENPLKRLLVPGEEWEFEVTAFYRGRQVFQQTISCPEGLRLVGSEVGDRTLPGWPVTLPDPGMSLTDRGVMSYVRHVLSCLGGGLALWRAGQWLWAQRLGHCHTYWAVSEELLPNSGHGPDGEVPKDKEGGVFDLGPFIVDLITFTEGSGRSPRYALWFCVGESWPQDQPWTKRLVMVKVVPTCLRALVEMARVGGASSLENTVDLHISNSHPLSLTSDQYKAYLQDLVEGMDFQGPGES

binding: binds
B2: Flag-tagged TANK-binding kinase 1 (TBK1), Q9UHD2 1-729 (enzyme)
chain: MQSTSNHLWLLSDILGQGATANVFRGRHKKTGDLFAIKVFNNISFLRPVDVQMREFEVLKKLNHKNIVKLFAIEEETTTRHKVLIMEFCPCGSLYTVLEEPSNAYGLPESEFLIVLRDVVGGMNHLRENGIVHRDIKPGNIMRVIGEDGQSVYKLTDFGAARELEDDEQFVSLYGTEEYLHPDMYERAVLRKDHQKKYGATVDLWSIGVTFYHAATGSLPFRPFEGPRRNKEVMYKIITGKPSGAISGVQKAENGPIDWSGDMPVSCSLSRGLQVLLTPVLANILEADQEKCWGFDQFFAETSDILHRMVIHVFSLQQMTAHKIYIHSYNTATIFHELVYKQTKIISSNQELIYEGRRLVLEPGRLAQHFPKTTEENPIFVVSREPLNTIGLIYEKISLPKVHPRYDLDGDASMAKAITGVVCYACRIASTLLLYQELMRKGIRWLIELIKDDYNETVHKKTEVVITLDFCIRNIEKTVKVYEKLMKINLEAAELGEISDIHTKLLRLSSSQGTIETSLQDIDSRLSPGGSLADAWAHQEGTHPKDRNVEKLQVLLNCMTEIYYQFKKDKAERRLAYNEEQIHKFDKQKLYYHATKAMTHFTDECVKKYEAFLNKSEEWIRKMLHLRKQLLSLTNQCFDIEEEVSKYQEYTNELQETLPQKMFTASSGIKHTMTPIYPSSNTLVEMTLGMKKLKEEMEGVVKELAENNHILERFGSLTMDGGLRNVDCL
